PMC7661038
No constants are given. Whether binding was seen depends on the method and setting. Binding seen in cells or lysates may run through a third protein. Some binding calls cover weakened binding; strength is not graded here. For some assays here: Where a sequence is shown, tags or fusion partners need not be part of it.

T1: Dot1l C-terminal domain (1001-1540aa) (mouse) (UniProt Q6XZL8)
T1 sequence: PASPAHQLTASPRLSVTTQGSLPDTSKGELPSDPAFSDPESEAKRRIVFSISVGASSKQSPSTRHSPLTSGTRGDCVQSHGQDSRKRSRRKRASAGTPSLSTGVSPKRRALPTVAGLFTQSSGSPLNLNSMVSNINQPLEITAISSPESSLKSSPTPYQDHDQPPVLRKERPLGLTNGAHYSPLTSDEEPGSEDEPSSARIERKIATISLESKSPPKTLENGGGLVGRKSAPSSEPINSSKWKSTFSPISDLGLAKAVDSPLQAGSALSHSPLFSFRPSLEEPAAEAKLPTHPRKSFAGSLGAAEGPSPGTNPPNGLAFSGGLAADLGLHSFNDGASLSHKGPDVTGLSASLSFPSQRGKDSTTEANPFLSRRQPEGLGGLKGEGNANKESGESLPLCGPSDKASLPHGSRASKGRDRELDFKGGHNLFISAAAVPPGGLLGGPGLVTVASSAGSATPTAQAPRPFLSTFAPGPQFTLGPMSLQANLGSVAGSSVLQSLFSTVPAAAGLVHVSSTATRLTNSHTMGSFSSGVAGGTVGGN

T2: Dot1l middle fragment (501-1000aa) (mouse) (UniProt Q6XZL8)
T2 sequence: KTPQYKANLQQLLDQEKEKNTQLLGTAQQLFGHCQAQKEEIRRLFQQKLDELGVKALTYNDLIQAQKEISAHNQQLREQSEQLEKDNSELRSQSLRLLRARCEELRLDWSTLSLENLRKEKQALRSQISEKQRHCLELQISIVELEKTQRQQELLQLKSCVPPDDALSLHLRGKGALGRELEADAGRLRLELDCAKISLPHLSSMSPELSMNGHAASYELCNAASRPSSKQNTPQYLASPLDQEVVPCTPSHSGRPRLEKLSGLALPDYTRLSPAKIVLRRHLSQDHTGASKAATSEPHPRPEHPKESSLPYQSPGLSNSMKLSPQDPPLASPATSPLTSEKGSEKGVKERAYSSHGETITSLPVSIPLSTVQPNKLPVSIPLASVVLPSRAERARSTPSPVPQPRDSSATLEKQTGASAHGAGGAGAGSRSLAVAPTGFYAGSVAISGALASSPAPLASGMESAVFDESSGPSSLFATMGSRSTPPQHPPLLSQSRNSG

T3: N-terminal Dot1l (1-500aa) (mouse) (UniProt Q6XZL8)
T3 sequence: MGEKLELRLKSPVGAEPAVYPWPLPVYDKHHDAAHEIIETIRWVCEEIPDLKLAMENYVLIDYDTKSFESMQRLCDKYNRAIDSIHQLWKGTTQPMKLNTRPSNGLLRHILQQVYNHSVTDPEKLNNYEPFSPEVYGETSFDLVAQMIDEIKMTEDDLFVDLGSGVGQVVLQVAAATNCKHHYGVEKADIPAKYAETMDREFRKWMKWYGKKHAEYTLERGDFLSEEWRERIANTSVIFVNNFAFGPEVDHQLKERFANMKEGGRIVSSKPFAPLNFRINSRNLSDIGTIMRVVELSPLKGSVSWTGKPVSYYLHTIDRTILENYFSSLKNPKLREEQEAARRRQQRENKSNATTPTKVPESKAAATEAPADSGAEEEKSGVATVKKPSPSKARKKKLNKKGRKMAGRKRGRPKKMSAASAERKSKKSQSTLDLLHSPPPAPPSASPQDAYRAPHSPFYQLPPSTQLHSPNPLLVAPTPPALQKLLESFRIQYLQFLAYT

B1: Flag-Zc3h10 (protein, UniProt Q8R205 1-435)
chain: MPDRDSYANGTGSSGGGPGGGGSEEASGAGTGSGGATSDAICRDFLRNVCKRGKRCRYRHPDMSEVSNLGVSKNEFIFCHDFQNKECSRPNCRFIHGSKEDEDGYKKTGELPPRLRQKVAAGLGLSPADLPNGKEEVPICRDFLKGDCQRGAKCKFRHLQRDFEFDARGGGGTGGGGSTGSAPPGRRHDLYDIYDLPERGFEDHEPGPKRRRGGCCPPDGPHFESYECNLAPLRGVECRLLEEENALLRKRVEELKKQVSNLLATNEVLLEQNAQFRNQAKVMTLSSTAPATEQTLAPTVGTVATFNHGIAQTHTTLSSQALQPRPVSQQELVAPTGAPAAPPTNAAPPAAPPPPPPHLNPEITPLSAALAQTIAQGMAPPPVSMAPVAVSVAPVAPVAVSMAQPLAGITMSHTTTPMVTYPIASQSMRITAMPH
B2: endogenous Zc3h10 (protein, UniProt Q8R205 1-435)
chain: B1 chain

Assays:
[1] = target: T1, Dot1l C-terminal domain (1001-1540aa) (mouse); test: co-IP; lysates of HEK293 cells cotransfected with FLAG-tagged Zc3h10 and HA-tagged Dot1l (whole or truncated); IP buffer 20 mM Tris pH 7.4, 150 mM NaCl, 1 mM EDTA, 10% glycerol, 1% NP-40; 2 hr at 4°C with anti-FLAG M2 or anti-HA; immunoblot
[2] = target: T2, Dot1l middle fragment (501-1000aa) (mouse); test: as above
HA-Dot1l (mouse) = HA-Dot1l (mouse) (UniProt Q6XZL8); test: as above
[3] = target: T3, N-terminal Dot1l (1-500aa) (mouse); test: as above
[4] = target: endogenous Dot1l (mouse (endogenous in BAT)) (UniProt Q6XZL8); test: co-IP; endogenous proteins, nuclear extracts of BAT of wild-type mice (also mice housed at room temperature or 4°C); Dot1l or Zc3h10 antibody and protein A/G agarose beads overnight at 4°C; immunoblot

Binder	binding [1]	binding [2]	binding (HA-Dot1l (mouse))	binding [3]	binding [4]
B1	no binding	binds	binds	no binding	
B2					binds
